Test results as given in publication PMC11662004 (Communications Chemistry, 2024).
HELM strings list residues between dots; [ac] is acetyl, [am] amide, other brackets name non-standard units.

Assay: general procedure: Fmoc solid-phase peptide synthesis; Rink amide MBHA
Settings: whole synthesis, 220 nm, scale 100 μmole

## PEPTIDE1{[CH2CO].[dY].L.I.Y.A.Y.Y.T.W.W.E.H.S.C.[am]}$PEPTIDE1,PEPTIDE1,1:R3-15:R3$$$V2.0
  final HPLC purity: >99.0%
